{
  "source": "the supplement of paper PMC8728848",
  "binders": {"B1": {"name": "AT5G24760(45) (Arabidopsis thaliana), Q8LEB2 (protein)", "chain": "MSASSSSFEQPQVITCNAAVAWRAGEPLVMEEVEVSPPQPLEIRIKVVCTSLCRSDLSAWESQSLLPRIFGHEAAGIVESIGEGVTEFEKGDHVLAVFTGECGSCRHCISGKSNMCQVLGMERKGLMHSDQKTRFSIKGKPVYHYCAVSSFSEYTVVHSGCAVKVDPLAPLHKICLLSCGVAAGLGAAWNVADVQKGSSVVIFGLGTVGLSVAQGAKLRGAAQILGVDINPAKAEQAKTFGVTDFINSNDLSEPIPQVIKRMTGGGADFSFECVGDTGIATTALQSCSDGWGMTVTLGVPKAKPEVSAHYGLFLSGKSLKGTLFGGWKPKSDLPSLIDKYMNKEIMIDEFITHNLSFDEINKAFVLMREGKCLRCVLHMPK"}},
  "experiment_in_all_cases": "glycan array binding signal (z-score within array); higher = stronger binding",
  "conditions_in_all_cases": "glycan notation: IUPAC condensed, linker removed",
  "key": {"[1]": {"target": "Fuc(a1-2)Gal(b1-4)GlcNAc(b1-3)Gal(b1-4)GlcNAc(b1-2)Man(a1-3)[Fuc(a1-2)Gal(b1-4)GlcNAc(b1-3)Gal(b1-4)GlcNAc(b1-2)Man(a1-6)]Man(b1-4)GlcNAc(b1-4)GlcNAc", "in_short": "(§1)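 The binding signal is a Z-score computed within each array and averaged over linkers. Arrays of the same protein sequence at different concentrations or buffers were also averaged together. Data originate from 3228 arrays in the Consortium for Functional Glycomics database, kept only where the protein sequence was available.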"}, "[2]": {"target": "Fuc(a1-2)Gal(b1-4)GlcNAc(b1-3)Gal(b1-4)GlcNAc(b1-3)Gal(b1-4)GlcNAc", "in_short": "as §1"}, "[3]": {"target": "Fuc(a1-2)Gal(b1-4)GlcNAc(b1-3)GalNAc", "in_short": "as §1"}, "[4]": {"target": "Fuc(a1-2)Gal(b1-4)GlcNAc(b1-3)[Fuc(a1-2)Gal(b1-4)GlcNAc(b1-6)]GalNAc", "in_short": "as §1"}, "[5]": {"target": "Fuc(a1-2)Gal(b1-4)GlcNAc(b1-3)[Fuc(a1-3)[Gal(b1-4)]GlcNAc(b1-6)]Gal(b1-4)Glc", "in_short": "as §1"}, "[6]": {"target": "Fuc(a1-2)Gal(b1-4)GlcNAc(b1-6)GalNAc", "in_short": "as §1"}, "[7]": {"target": "Fuc(a1-2)Gal(b1-4)GlcNAc6S", "in_short": "as §1"}, "[8]": {"target": "Fuc(a1-2)Gal(b1-4)[Fuc(a1-3)]GlcNAc", "in_short": "as §1"}, "[9]": {"target": "Fuc(a1-2)Gal(b1-4)[Fuc(a1-3)]GlcNAc(b1-2)Man(a1-3)[Fuc(a1-2)Gal(b1-4)[Fuc(a1-3)]GlcNAc(b1-2)Man(a1-6)]Man(b1-4)GlcNAc(b1-4)[Fuc(a1-6)]GlcNAc", "in_short": "as §1"}, "[10]": {"target": "Fuc(a1-2)Gal(b1-4)[Fuc(a1-3)]GlcNAc(b1-2)[Fuc(a1-2)Gal(b1-4)[Fuc(a1-3)]GlcNAc(b1-4)]Man(a1-3)[Fuc(a1-2)Gal(b1-4)[Fuc(a1-3)]GlcNAc(b1-2)Man(a1-6)]Man(b1-4)GlcNAc(b1-4)GlcNAc", "in_short": "as §1"}, "[11]": {"target": "Fuc(a1-2)Gal(b1-4)[Fuc(a1-3)]GlcNAc(b1-3)Gal(b1-4)[Fuc(a1-3)]GlcNAc", "in_short": "as §1"}, "[12]": {"target": "Fuc(a1-2)Gal(b1-4)[Fuc(a1-3)]GlcNAc(b1-3)Gal(b1-4)[Fuc(a1-3)]GlcNAc(b1-3)Gal(b1-4)[Fuc(a1-3)]GlcNAc", "in_short": "as §1"}, "[13]": {"target": "Fuc(a1-2)Gal(b1-4)[Fuc(a1-3)]GlcNAc(b1-3)GalNAc", "in_short": "as §1"}, "[14]": {"target": "Fuc(a1-2)Gal(b1-4)[Fuc(a1-3)]GlcNAc(b1-3)[Neu5Ac(a2-6)Gal(b1-4)GlcNAc(b1-6)]Gal(b1-4)Glc", "in_short": "as §1"}, "[15]": {"target": "Fuc(a1-2)Gal3S(b1-4)GlcNAc", "in_short": "as §1"}, "[16]": {"target": "Fuc(a1-2)Gal6S(b1-3)GlcNAc", "in_short": "as §1"}, "[17]": {"target": "Fuc(a1-2)Gal6S(b1-3)GlcNAc6S", "in_short": "as §1"}, "Fuc(a1-2)Gal6S(b1-4)Glc": {"target": "Fuc(a1-2)Gal6S(b1-4)Glc", "in_short": "as §1"}, "[18]": {"target": "Fuc(a1-2)Gal6S(b1-4)Glc6S", "in_short": "as §1"}, "Fuc(a1-2)[Gal(a1-3)]Gal": {"target": "Fuc(a1-2)[Gal(a1-3)]Gal", "in_short": "as §1"}, "[19]": {"target": "Fuc(a1-2)[Gal(a1-3)]Gal(b1-3)GalNAc", "in_short": "as §1"}, "[20]": {"target": "Fuc(a1-2)[Gal(a1-3)]Gal(b1-3)GalNAc(b1-3)Gal(a1-4)Gal(b1-4)Glc", "in_short": "as §1"}, "[21]": {"target": "Fuc(a1-2)[Gal(a1-3)]Gal(b1-3)GlcNAc", "in_short": "as §1"}, "[22]": {"target": "Fuc(a1-2)[Gal(a1-3)]Gal(b1-3)GlcNAc(b1-2)Man(a1-3)[Fuc(a1-2)[Gal(a1-3)]Gal(b1-3)GlcNAc(b1-2)Man(a1-6)]Man(b1-4)GlcNAc(b1-4)GlcNAc", "in_short": "as §1"}, "[23]": {"target": "Fuc(a1-2)[Gal(a1-3)]Gal(b1-3)GlcNAc(b1-2)Man(a1-3)[Fuc(a1-2)[Gal(a1-3)]Gal(b1-3)GlcNAc(b1-2)Man(a1-6)]Man(b1-4)GlcNAc(b1-4)[Fuc(a1-6)]GlcNAc", "in_short": "as §1"}, "[24]": {"target": "Fuc(a1-2)[Gal(a1-3)]Gal(b1-3)GlcNAc(b1-3)GalNAc", "in_short": "as §1"}, "[25]": {"target": "Fuc(a1-2)[Gal(a1-3)]Gal(b1-3)GlcNAc(b1-6)GalNAc", "in_short": "as §1"}, "[26]": {"target": "Fuc(a1-2)[Gal(a1-3)]Gal(b1-4)Glc", "in_short": "as §1"}, "[27]": {"target": "Fuc(a1-2)[Gal(a1-3)]Gal(b1-4)GlcNAc", "in_short": "as §1"}, "[28]": {"target": "Fuc(a1-2)[Gal(a1-3)]Gal(b1-4)GlcNAc(b1-2)Man", "in_short": "as §1"}, "[29]": {"target": "Fuc(a1-2)[Gal(a1-3)]Gal(b1-4)GlcNAc(b1-2)Man(a1-3)[Fuc(a1-2)[Gal(a1-3)]Gal(b1-4)GlcNAc(b1-2)Man(a1-6)]Man(b1-4)GlcNAc(b1-4)GlcNAc", "in_short": "as §1"}, "[30]": {"target": "Fuc(a1-2)[Gal(a1-3)]Gal(b1-4)GlcNAc(b1-2)Man(a1-3)[Fuc(a1-2)[Gal(a1-3)]Gal(b1-4)GlcNAc(b1-2)Man(a1-6)]Man(b1-4)GlcNAc(b1-4)[Fuc(a1-6)]GlcNAc", "in_short": "as §1"}, "[31]": {"target": "Fuc(a1-2)[Gal(a1-3)]Gal(b1-4)GlcNAc(b1-3)GalNAc", "in_short": "as §1"}, "[32]": {"target": "Fuc(a1-2)[Gal(a1-3)]Gal(b1-4)GlcNAc(b1-3)[Fuc(a1-2)[Gal(a1-3)]Gal(b1-4)GlcNAc(b1-6)]GalNAc", "in_short": "as §1"}, "[33]": {"target": "Fuc(a1-2)[Gal(a1-3)]Gal(b1-4)GlcNAc(b1-6)GalNAc", "in_short": "as §1"}, "[34]": {"target": "Fuc(a1-2)[Gal(a1-3)]Gal(b1-4)[Fuc(a1-3)]Glc", "in_short": "as §1"}, "[35]": {"target": "Fuc(a1-2)[Gal(a1-3)]Gal(b1-4)[Fuc(a1-3)]GlcNAc", "in_short": "as §1"}},
  "note": "Some of the results follow.",
  "data": [
    {"binder": "B1", "values": [
      {"measurement": "glycan array binding signal (z-score)", "setting": "[1]", "result": -1.37},
      {"measurement": "glycan array binding signal (z-score)", "setting": "[2]", "result": -0.964},
      {"measurement": "glycan array binding signal (z-score)", "setting": "[3]", "result": -0.198},
      {"measurement": "glycan array binding signal (z-score)", "setting": "[4]", "result": -0.213},
      {"measurement": "glycan array binding signal (z-score)", "setting": "[5]", "result": 0.166},
      {"measurement": "glycan array binding signal (z-score)", "setting": "[6]", "result": -0.75},
      {"measurement": "glycan array binding signal (z-score)", "setting": "[7]", "result": -0.406},
      {"measurement": "glycan array binding signal (z-score)", "setting": "[8]", "result": 0.888},
      {"measurement": "glycan array binding signal (z-score)", "setting": "[9]", "result": 0.395},
      {"measurement": "glycan array binding signal (z-score)", "setting": "[10]", "result": 0.707},
      {"measurement": "glycan array binding signal (z-score)", "setting": "[11]", "result": -0.531},
      {"measurement": "glycan array binding signal (z-score)", "setting": "[12]", "result": -0.33},
      {"measurement": "glycan array binding signal (z-score)", "setting": "[13]", "result": 4.6},
      {"measurement": "glycan array binding signal (z-score)", "setting": "[14]", "result": -0.581},
      {"measurement": "glycan array binding signal (z-score)", "setting": "[15]", "result": -0.65},
      {"measurement": "glycan array binding signal (z-score)", "setting": "[16]", "result": -0.529},
      {"measurement": "glycan array binding signal (z-score)", "setting": "[17]", "result": 0.231},
      {"measurement": "glycan array binding signal (z-score)", "setting": "Fuc(a1-2)Gal6S(b1-4)Glc", "result": -0.003},
      {"measurement": "glycan array binding signal (z-score)", "setting": "[18]", "result": -0.028},
      {"measurement": "glycan array binding signal (z-score)", "setting": "Fuc(a1-2)[Gal(a1-3)]Gal", "result": 0.984},
      {"measurement": "glycan array binding signal (z-score)", "setting": "[19]", "result": -0.396},
      {"measurement": "glycan array binding signal (z-score)", "setting": "[20]", "result": 0.469},
      {"measurement": "glycan array binding signal (z-score)", "setting": "[21]", "result": -0.224},
      {"measurement": "glycan array binding signal (z-score)", "setting": "[22]", "result": -0.171},
      {"measurement": "glycan array binding signal (z-score)", "setting": "[23]", "result": 0.653},
      {"measurement": "glycan array binding signal (z-score)", "setting": "[24]", "result": -0.15},
      {"measurement": "glycan array binding signal (z-score)", "setting": "[25]", "result": -0.246},
      {"measurement": "glycan array binding signal (z-score)", "setting": "[26]", "result": 1.2},
      {"measurement": "glycan array binding signal (z-score)", "setting": "[27]", "result": 1.36},
      {"measurement": "glycan array binding signal (z-score)", "setting": "[28]", "result": -0.259},
      {"measurement": "glycan array binding signal (z-score)", "setting": "[29]", "result": -0.45},
      {"measurement": "glycan array binding signal (z-score)", "setting": "[30]", "result": 0.499},
      {"measurement": "glycan array binding signal (z-score)", "setting": "[31]", "result": -0.859},
      {"measurement": "glycan array binding signal (z-score)", "setting": "[32]", "result": 0.627},
      {"measurement": "glycan array binding signal (z-score)", "setting": "[33]", "result": -0.417},
      {"measurement": "glycan array binding signal (z-score)", "setting": "[34]", "result": -1.01},
      {"measurement": "glycan array binding signal (z-score)", "setting": "[35]", "result": 0.873}
    ]}
  ]
}
